{
  "sequences": {"note": "The chains behind the UniProt entries cited, without tags or fusion partners. Residues count along the entry.", "UniProt Q15109, residues 23-404": "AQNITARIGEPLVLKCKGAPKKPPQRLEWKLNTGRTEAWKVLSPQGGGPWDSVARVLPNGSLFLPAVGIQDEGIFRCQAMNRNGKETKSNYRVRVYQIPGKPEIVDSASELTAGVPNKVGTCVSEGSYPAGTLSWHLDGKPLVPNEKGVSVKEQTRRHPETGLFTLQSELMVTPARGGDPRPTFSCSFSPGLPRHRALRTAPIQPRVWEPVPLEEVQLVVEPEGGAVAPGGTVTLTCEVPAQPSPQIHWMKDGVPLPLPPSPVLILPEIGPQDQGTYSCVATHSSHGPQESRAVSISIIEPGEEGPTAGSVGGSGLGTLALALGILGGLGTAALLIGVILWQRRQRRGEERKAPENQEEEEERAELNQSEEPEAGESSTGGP", "UniProt Q62151, residues 23-402": "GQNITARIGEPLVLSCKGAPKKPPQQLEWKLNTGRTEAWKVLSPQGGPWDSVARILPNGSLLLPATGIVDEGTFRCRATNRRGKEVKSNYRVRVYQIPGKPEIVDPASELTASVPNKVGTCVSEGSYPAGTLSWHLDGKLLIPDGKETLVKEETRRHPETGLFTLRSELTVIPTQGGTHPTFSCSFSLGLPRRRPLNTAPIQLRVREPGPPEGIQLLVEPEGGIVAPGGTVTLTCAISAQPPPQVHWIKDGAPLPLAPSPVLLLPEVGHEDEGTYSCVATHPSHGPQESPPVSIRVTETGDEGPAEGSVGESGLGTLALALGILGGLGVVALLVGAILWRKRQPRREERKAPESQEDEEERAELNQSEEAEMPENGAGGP"},
  "source": "paper PMC11214053",
  "key": {"[1]": {"target": "receptor for advanced glycation end-products (RAGE), endogenous in HUVEC (human (endogenous in HUVEC)) (UniProt Q15109)", "assay": "co-IP; HUVEC protein extracts incubated with rTOX; IP with anti-RAGE antibody on protein A/G magnetic beads; immunoblot with anti-TOX or anti-RAGE; RAGE-depleted HUVECs as control; only the binder purified"}, "[2]": {"target": "receptor for advanced glycation end-products (RAGE), endogenous in mouse lung (mouse (endogenous in mouse lung)) (UniProt Q62151)", "assay": "co-IP; mouse lung lysate, IP with anti-RAGE antibody, immunoblot with anti-TOX or anti-RAGE; the legend says rTOX was injected intravenously before the lungs were lysed, the text says lung extracts were incubated with rTOX; RAGE-KO mouse lung as control; only the binder purified"}},
  "note": "No constants are given. Whether binding was seen depends on the method and setting. In cells and extracts the contact can be indirect. Some binding calls cover weakened binding; strength is not graded here.",
  "data": [
    {"binder": "recombinant thymocyte selection-associated high-mobility group box protein (rTOX) (protein, UniProt O94900 1-526) MDVRFYPPPAQPAAAPDAPCLGPSPCLDPYYCNKFDGENMYMSMTEPSQDYVPASQSYPGPSLESEDFNIPPITPPSLPDHSLVHLNEVESGYHSLCHPMNHNGLLPFHPQNMDLPEITVSNMLGQDGTLLSNSISVMPDIRNPEGTQYSSHPQMAAMRPRGQPADIRQQPGMMPHGQLTTINQSQLSAQLGLNMGGSNVPHNSPSPPGSKSATPSPSSSVHEDEGDDTSKINGGEKRPASDMGKKPKTPKKKKKKDPNEPQKPVSAYALFFRDTQAAIKGQNPNATFGEVSKIVASMWDGLGEEQKQVYKKKTEAAKKEYLKQLAAYRASLVSKSYSEPVDVKTSQPPQLINSKPSVFHGPSQAHSALYLSSHYHQQPGMNPHLTAMHPSLPRNIAPKPNNQMPVTVSIANMAVSPPPPLQISPPLHQHLNMQQHQPLTMQQPLGNQLPMQVQSALHSPTMQQGFTLQPDYQTIINPTSTAAQVVTQAMEYVRSGCRNPPPQPVDWNNDYCSSGGMQRDKALYLT", "values": [
      {"measurement": "binding", "setting": "[1]", "value": "binds"},
      {"measurement": "binding", "setting": "[2]", "value": "binds"}
    ]}
  ]
}
